Measurements published in patent US20230048553A1 (AbbVie / Abbott, published 2023).
No constants are given. Whether binding was seen depends on the method and setting. Some binding calls cover weakened binding; strength is not graded here.

Amino acid sequences for entries named in this document (tags omitted). A change or cut given only in a name is not applied to a line headed by its entry. Chains listed by the source or under a name are the forms on record and can include a tag or linker.
cynomolgus CCR8 (G7NYJ2, form named): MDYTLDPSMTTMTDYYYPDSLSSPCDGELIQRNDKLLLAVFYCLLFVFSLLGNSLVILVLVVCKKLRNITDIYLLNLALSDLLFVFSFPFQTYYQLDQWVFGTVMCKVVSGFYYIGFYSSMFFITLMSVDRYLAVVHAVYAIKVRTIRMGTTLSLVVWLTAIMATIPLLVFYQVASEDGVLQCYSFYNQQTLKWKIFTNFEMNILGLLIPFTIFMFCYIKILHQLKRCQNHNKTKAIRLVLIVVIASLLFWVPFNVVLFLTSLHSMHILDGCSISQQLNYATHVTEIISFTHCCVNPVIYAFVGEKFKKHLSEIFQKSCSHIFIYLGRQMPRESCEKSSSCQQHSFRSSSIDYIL

Legend:
cynomolgus CCR8 [1] = target: T1, cynomolgus CCR8 (cynomolgus monkey, UniProt G7NYJ2 1-355); experiment: flow cytometry, Jurkat cells overexpressing CCR8
cynomolgus CCR8 [2] = target: T1, cynomolgus CCR8; experiment: flow cytometry on cyno CCR8 Jurkat cells
cynomolgus CCR8 [3] = target: T1, cynomolgus CCR8; experiment: flow cytometry on cyCCR8 Jurkat cells
Experimental: The candidate molecules were assessed for binding capacity using flow cytometry through known methods against overexpressed huCCR8 or cyCCR8 on the surface of Jurkat cells. The exemplary antibodies were tested for their ability to self-interact, bind to huCCR8 and cyCCR8, capacity for ADCC using the reporter bioassay, and non-specific binding to HEK293 cells. […] The AC-SINS self-interaction scores for each candidate was <1. At 100 μg/mL, non-specific binding maximums ranged from 97 to 144 GMFI. At 10 μg/mL, non-specific binding maximums ranged from 94-111 GFMI. At 1 μg/mL, non-specific binding maximums ranged from 87-102 GMFI.

Row | Binder | binding (cynomolgus CCR8 [1]) | binding (cynomolgus CCR8 [2]) | binding (cynomolgus CCR8 [3])
1 | ABBV-514 (antibody, human IgG1, kappa, V domains shown, afucosylated N-glycan at ASN-300 (EU: ASN-297), Afucosylated humanized IgG1 kappa made in cells expressing Pseudomonas RMD) VH: EVQLVESGGGLVQPGGSLKLSCAASGFIFSNAVMYWVRQASGKGLEWVARIKTKFNNYATYYADAVKGRFTISRDDSKNMVYLQMNSLKTEDTAVYYCTAGDRNKPFAYWGQGTLVTVSS VL: ETVVTQSPATLSLSPGERATLSCRASTSVITLLHWFQQKPGQAPRLLIHGASNLESRVPARFSGSGSGTDFTLTISSLEPEDFATYFCQQSWNDPYTFGQGTKLEIKR | binds | binds | 
2 | AC-277357 (fucosylated) (antibody, human IgG1, kappa, V domains shown, AC-264700 with LCDR1 D27→T. Human IgG1 kappa) VH: EVQLVESGGGLVQPGGSLKLSCAASGFIFSNAVMYWVRQASGKGLEWVARIKTKFNNYATYYADAVKGRFTISRDDSKNMVYLQMNSLKTEDTAVYYCTAGDRNKPFAYWGQGTLVTVSS VL: ETVVTQSPATLSLSPGERATLSCRASTSVITLLHWFQQKPGQAPRLLIHGASNLESRVPARFSGSGSGTDFTLTISSLEPEDFATYFCQQSWNDPYTFGQGTKLEIKR |  |  | binds
